According to EP0428423A2, “Aryloxy alkyl benzenes, processes for their preparation and pharmaceutical compositions containing them” (LIPHA S.A., priority 1989, dated 1991):

What was measured:
COTRANSPORT Na-K = target: T1, COTRANSPORT Na-K (Homo sapiens, UniProt P55011); experiment: Na-K cotransport of human erythrocytes; format: cell-based, ERYTHROCYTES HUMAINS; conditions: read-out: EFFET SUR LE COTRANSPORT Na-K IC 50
T1 construct: systèmes de transport du sodium et du potassium des érythrocytes humains; endogenous in cells; host or cells: human erythrocytes
T1 sequence (P55011 1-1212): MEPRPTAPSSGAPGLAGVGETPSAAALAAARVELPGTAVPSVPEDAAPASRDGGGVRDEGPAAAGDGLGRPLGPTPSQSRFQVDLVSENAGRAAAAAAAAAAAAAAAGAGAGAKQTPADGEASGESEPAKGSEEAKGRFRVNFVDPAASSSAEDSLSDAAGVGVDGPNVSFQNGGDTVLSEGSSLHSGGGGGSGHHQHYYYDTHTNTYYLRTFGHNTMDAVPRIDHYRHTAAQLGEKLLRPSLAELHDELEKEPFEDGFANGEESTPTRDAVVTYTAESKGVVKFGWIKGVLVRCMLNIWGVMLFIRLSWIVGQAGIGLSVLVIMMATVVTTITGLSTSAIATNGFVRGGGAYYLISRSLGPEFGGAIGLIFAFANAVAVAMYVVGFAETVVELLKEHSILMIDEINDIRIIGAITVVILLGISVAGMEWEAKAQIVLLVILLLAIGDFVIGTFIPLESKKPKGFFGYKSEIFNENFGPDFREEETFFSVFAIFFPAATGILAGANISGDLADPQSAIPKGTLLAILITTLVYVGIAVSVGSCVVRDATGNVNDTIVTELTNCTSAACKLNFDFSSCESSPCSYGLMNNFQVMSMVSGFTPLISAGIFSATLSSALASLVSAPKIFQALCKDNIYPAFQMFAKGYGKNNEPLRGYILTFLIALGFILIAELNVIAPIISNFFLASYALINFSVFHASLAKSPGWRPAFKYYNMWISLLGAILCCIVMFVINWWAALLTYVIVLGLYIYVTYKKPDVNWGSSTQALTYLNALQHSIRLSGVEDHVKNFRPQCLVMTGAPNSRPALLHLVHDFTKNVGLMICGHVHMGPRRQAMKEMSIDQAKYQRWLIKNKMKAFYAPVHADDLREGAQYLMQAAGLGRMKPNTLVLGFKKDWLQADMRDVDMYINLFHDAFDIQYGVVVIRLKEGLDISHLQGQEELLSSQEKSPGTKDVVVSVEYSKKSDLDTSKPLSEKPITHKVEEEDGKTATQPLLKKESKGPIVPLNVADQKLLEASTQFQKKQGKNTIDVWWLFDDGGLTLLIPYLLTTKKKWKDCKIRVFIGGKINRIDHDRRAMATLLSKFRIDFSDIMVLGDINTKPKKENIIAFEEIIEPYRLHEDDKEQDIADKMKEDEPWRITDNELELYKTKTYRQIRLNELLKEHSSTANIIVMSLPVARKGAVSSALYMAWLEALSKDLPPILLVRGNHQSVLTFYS
Excerpt: Cet effet a été étudié selon la méthodologie décrite par G. GARAY et coll. dans Naunyn-Schmidberg's Arch. Pharmakol. […] Pharm.

ECHANGEUR D'ANIONS = target: T2, ECHANGEUR D'ANIONS (Homo sapiens, UniProt P02730); experiment: Anion exchanger of human erythrocytes; format: cell-based, ERYTHROCYTES HUMAINS; conditions: read-out: EFFET SUR L'ECHANGEUR D'ANIONS IC 50
T2 construct: systèmes de transport du sodium et du potassium des érythrocytes humains; endogenous in cells; host or cells: human erythrocytes
T2 sequence (P02730 1-911): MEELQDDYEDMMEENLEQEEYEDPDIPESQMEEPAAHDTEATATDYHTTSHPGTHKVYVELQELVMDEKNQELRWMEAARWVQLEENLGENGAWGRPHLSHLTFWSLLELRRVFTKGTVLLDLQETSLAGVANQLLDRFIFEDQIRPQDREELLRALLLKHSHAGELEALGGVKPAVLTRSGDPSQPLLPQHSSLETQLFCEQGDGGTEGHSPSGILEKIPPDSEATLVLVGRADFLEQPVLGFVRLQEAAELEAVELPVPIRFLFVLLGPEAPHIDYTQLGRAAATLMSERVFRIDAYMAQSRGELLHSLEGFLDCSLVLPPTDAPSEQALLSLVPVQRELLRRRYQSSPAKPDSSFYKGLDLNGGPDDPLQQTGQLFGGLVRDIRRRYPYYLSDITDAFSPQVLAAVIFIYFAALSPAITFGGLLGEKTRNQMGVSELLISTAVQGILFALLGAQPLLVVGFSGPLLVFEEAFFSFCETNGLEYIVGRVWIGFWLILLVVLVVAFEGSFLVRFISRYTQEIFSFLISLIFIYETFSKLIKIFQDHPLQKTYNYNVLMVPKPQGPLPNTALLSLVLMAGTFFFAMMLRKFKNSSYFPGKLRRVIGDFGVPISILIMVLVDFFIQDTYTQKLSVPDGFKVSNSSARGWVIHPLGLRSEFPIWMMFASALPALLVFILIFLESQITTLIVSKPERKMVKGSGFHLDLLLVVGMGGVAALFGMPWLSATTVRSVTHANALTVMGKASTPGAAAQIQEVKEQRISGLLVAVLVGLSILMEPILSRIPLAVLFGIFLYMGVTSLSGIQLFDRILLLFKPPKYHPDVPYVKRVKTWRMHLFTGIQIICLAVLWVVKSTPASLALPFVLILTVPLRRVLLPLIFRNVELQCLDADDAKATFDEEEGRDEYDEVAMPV
Excerpt: Cet effet a été étudié selon la méthodologie décrite par G. GARAY et coll. dans Naunyn-Schmidberg's Arch. Pharmakol. 334 (1986) 202-209 et dans Bioch. Pharm. 33 (1984) 2013-2020.

- IC50 (COTRANSPORT Na-K): 37 µM
- IC50 (ECHANGEUR D'ANIONS): 200 µM
Compound: NS(=O)(=O)c1cc(C(=O)O)c(NCc2ccco2)cc1Cl [FUROSEMIDE, reference compound]
